Reference: paper PMC3320541

B1: MLO2^Δ1-280::cYFP (and MLO2^Δ1-280::nYFP in the reciprocal combination) (domain or fragment, UniProt Q9SXB6 281-573)
chain: QRSLEKDFKTVVEISPVIWFVAVLFLLTNSYGLRSYLWLPFIPLVVILIVGTKLEVIITKLGLRIQEKGDVVRGAPVVQPGDDLFWFGKPRFILFLIHLVLFTNAFQLAFFAWSTYEFNLNNCFHESTADVVIRLVVGAVVQILCSYVTLPLYALVTQMGSKMKPTVFNDRVATALKKWHHTAKNETKHGRHSGSNTPFSSRPTTPTHGSSPIHLLHNFNNRSVENYPSSPSPRYSGHGHHEHQFWDPESQHQEAETSTHHSLAHESSEPVLASVELPPIRTSKSLRDFSFKK
B2: Arabidopsis thaliana MLO2 (At1g11310), partial clone of the cDNA prey library (domain or fragment, UniProt Q9SXB6 281-573)
chain: B1 chain

What was measured:
[1] = target: HopZ1c::nYFP (and HopZ1c::cYFP in the reciprocal combination) (Pseudomonas syringae); experiment: split reporter; BiFC with nYFP and cYFP fusions (both combinations) co-expressed by Agrobacterium infiltration in N. benthamiana leaves; 20 uM dexamethasone; confocal imaging 72-96 hours after induction
[2] = target: HopZ2::nYFP (and HopZ2::cYFP in the reciprocal combination) (Pseudomonas syringae); experiment: as above
[3] = target: HopZ1b^C/A (Pseudomonas syringae); experiment: two-hybrid; split-ubiquitin yeast two-hybrid screen (QIS-Seq): membrane-tethered LexA-VP16-Cub bait against the NubG Arabidopsis cDNA prey library in AP-4 yeast; interacting colonies by growth on SD-LeuTrpHis + 3-AT; prey inserts of ~2000 pooled colonies sequenced (Illumina); enrichment against luciferase bait and library
[4] = target: HopZ1c^C/A (Pseudomonas syringae); experiment: as above
[5] = target: HopZ3^C/A (Pseudomonas syringae); experiment: as above

Binder | binding [1] | binding [2] | binding [3] | binding [4] | binding [5]
B1 | no binding | binds | – | – | –
B2 | – | – | no binding | no binding | no binding

No constants are given. Whether binding was seen depends on the method and setting. For some assays here: In cells and extracts the contact can be indirect. For some assays here: Binding calls can cover weak binding; strength is not graded here. For some assays here: Where a sequence is shown, tags or fusion partners need not be part of it.
